Our source for the IC50 values is ChEMBL document CHEMBL1949642 (Bioorg Med Chem Lett, 2012).

By UniProt entry, the sequences of proteins in these tests, tags left out. Where a name states a change or a piece, a line headed by the entry shows the natural chain unless it says otherwise.
UniProt Q12809: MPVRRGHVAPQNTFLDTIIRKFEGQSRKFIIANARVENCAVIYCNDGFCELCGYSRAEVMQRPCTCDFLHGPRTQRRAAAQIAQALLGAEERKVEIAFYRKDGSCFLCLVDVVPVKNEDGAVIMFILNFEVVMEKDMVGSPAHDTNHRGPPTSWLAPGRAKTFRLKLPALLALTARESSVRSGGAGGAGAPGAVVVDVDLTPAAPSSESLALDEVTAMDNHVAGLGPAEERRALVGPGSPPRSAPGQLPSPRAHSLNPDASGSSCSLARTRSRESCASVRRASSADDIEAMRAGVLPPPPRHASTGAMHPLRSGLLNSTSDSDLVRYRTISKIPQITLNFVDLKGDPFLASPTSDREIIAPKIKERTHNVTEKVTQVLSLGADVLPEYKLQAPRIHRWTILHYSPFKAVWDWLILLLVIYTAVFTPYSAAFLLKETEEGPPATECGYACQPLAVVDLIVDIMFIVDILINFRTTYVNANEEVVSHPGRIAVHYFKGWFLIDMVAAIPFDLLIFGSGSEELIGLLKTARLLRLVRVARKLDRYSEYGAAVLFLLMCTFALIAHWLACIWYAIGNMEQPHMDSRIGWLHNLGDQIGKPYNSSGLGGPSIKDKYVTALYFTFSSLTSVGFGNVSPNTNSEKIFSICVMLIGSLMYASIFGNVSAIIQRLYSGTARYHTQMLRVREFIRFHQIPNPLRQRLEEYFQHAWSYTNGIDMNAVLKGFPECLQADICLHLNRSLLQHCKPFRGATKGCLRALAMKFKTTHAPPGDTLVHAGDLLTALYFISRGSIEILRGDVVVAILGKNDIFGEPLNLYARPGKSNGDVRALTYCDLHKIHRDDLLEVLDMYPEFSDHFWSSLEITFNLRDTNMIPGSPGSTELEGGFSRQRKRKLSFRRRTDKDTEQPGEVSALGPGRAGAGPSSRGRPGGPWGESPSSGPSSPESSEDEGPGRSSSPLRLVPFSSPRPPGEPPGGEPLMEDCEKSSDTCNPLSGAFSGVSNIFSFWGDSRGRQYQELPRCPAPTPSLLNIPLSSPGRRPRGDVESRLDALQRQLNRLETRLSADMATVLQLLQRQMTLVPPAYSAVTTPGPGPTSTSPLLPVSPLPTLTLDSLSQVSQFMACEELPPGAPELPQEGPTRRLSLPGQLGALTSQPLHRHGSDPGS

The assay concerns the target Voltage-gated inwardly rectifying potassium channel KCNH2 (Homo sapiens, UniProt Q12809). Put plainly: Displacement of 3,7-Bis[2-(4-nitro[3,5-3H]phenyl)ethyl]-3,7-diazabicyclo[3.3.1]nonane from human ERG expressed in HEK cells after 3 hrs.

The term IC50 denotes the concentration that gives 50% inhibition. The low end stands for greater potency, the high end for weaker potency.

The compound `CCN(C(=O)Cc1ccc(S(C)(=O)=O)cc1)C1CCN(CC[C@@H](c2cccc(F)c2)C2CCN(S(C)(=O)=O)CC2)CC1` came in with an IC50 of 35 µM.
